Where no end group is shown, it is not given here. [ ]: non-standard residue; d: D form. Dab = NCC[C@H](N)C(=O)O

This series in a line: peptide made by a vendor (Fmoc solid-phase peptide synthesis; rink amide resin; HOBT and DIC). The settings on record: whole synthesis, run 1.

As for [Dab]I[Dab][dF]L[Dab][dV]LS, the “final HPLC purity” value by setting is: (Method A, 220 nm) 98%; (Method B) 96%.

For the origin of these results see patent US11364275B2 (priority 2017, dated 2022).
